PubChem BioAssay AID1508597, Cure First | 2020
This is an unselected part of the about 2,100 reagents, under one of the conditions tested. 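Calls flag viability under 80% in either arm, not effects specific to rucaparib; the reference for percent is not stated.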 A reagent listed more than once was tested more than once; the source does not tell the runs apart. The record does not give: the 100% reference.

Screen: 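Knock-downs altering ovarian cancer cell survival with or without PARP inhibitor rucaparib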 (primary screen)
Cells: human ovarian carcinoma lines grown from tumours: OCI-P5x (papillary serous) and OCI-C5x (clear cell)
Knock-down reagent: siRNA pool against human genes, 1.25 pmol siRNA per well
Duration: 72 h or 96 h, depending on the cell culture
Treatment: rucaparib 20 µM (about IC30) or vehicle, present until read-out
Rucaparib or vehicle: Vehicle
Cell line: OCI-P5x (serous)
Detection: 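ATP luminescence measured at 72 or 96 h according to the culture, then normalised and expressed as percent viability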
Reading the numbers: viability, normalised: higher = more viable cells remaining
Call rule: 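Active when normalised viability falls below 80 percent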
Calls: active = viability under 80%; inactive = viability 80% or more

gene knocked down | technical replicate | viability, normalised (%) | call
MAD2L1 (GeneID 4085) | 1 | 87.3 | inactive
MAD2L1 (GeneID 4085) | 2 | 91.9 | inactive
MAD2L1 (GeneID 4085) | 3 | 86.6 | inactive
KDM4A (GeneID 9682) | 1 | 44.3 | active
KDM4A (GeneID 9682) | 2 | 58 | active
KDM4A (GeneID 9682) | 3 | 62.5 | active
CARMIL1 (GeneID 55604) | 1 | 63 | active
CARMIL1 (GeneID 55604) | 2 | 76.4 | active
CARMIL1 (GeneID 55604) | 3 | 77.4 | active
IRAK3 (GeneID 11213) | 1 | 80 | active
IRAK3 (GeneID 11213) | 2 | 82.7 | inactive
IRAK3 (GeneID 11213) | 3 | 65.6 | active
CLDN17 (GeneID 26285) | 1 | 62.3 | active
CLDN17 (GeneID 26285) | 2 | 69.3 | active
CLDN17 (GeneID 26285) | 3 | 66.4 | active
RAB38 (GeneID 23682) | 1 | 90 | inactive
RAB38 (GeneID 23682) | 2 | 75.1 | active
RAB38 (GeneID 23682) | 3 | 76 | active
ERCC3 (GeneID 2071) | 1 | 76.3 | active
ERCC3 (GeneID 2071) | 1 | 65 | active
ERCC3 (GeneID 2071) | 2 | 80.5 | inactive
ERCC3 (GeneID 2071) | 2 | 72.1 | active
ERCC3 (GeneID 2071) | 3 | 89.5 | inactive
ERCC3 (GeneID 2071) | 3 | 85.2 | inactive
TOP3B (GeneID 8940) | 1 | 85.7 | inactive
TOP3B (GeneID 8940) | 2 | 95.2 | inactive
TOP3B (GeneID 8940) | 3 | 98.4 | inactive
NEK8 (GeneID 284086) | 1 | 77.6 | active
NEK8 (GeneID 284086) | 2 | 75.2 | active
NEK8 (GeneID 284086) | 3 | 81.1 | inactive
NSD1 (GeneID 64324) | 1 | 60.3 | active
NSD1 (GeneID 64324) | 2 | 77 | active
NSD1 (GeneID 64324) | 3 | 83.2 | inactive
TGFBR3 (GeneID 7049) | 1 | 74 | active
TGFBR3 (GeneID 7049) | 2 | 83.9 | inactive
TGFBR3 (GeneID 7049) | 3 | 90.2 | inactive
ATP7A (GeneID 538) | 1 | 52.2 | active
ATP7A (GeneID 538) | 2 | 65.3 | active
ATP7A (GeneID 538) | 3 | 59.5 | active
TFRC (GeneID 7037) | 1 | 82.8 | inactive
TFRC (GeneID 7037) | 2 | 64.6 | active
TFRC (GeneID 7037) | 3 | 77.3 | active
PTK2B (GeneID 2185) | 1 | 79.2 | active
PTK2B (GeneID 2185) | 2 | 71.9 | active
PTK2B (GeneID 2185) | 3 | 64.4 | active
ERCC2 (GeneID 2068) | 1 | 121 | inactive
ERCC2 (GeneID 2068) | 1 | 67 | active
ERCC2 (GeneID 2068) | 2 | 108 | inactive
ERCC2 (GeneID 2068) | 2 | 65.8 | active
ERCC2 (GeneID 2068) | 3 | 68.9 | active
ERCC2 (GeneID 2068) | 3 | 113 | inactive
SUV39H2 (GeneID 79723) | 1 | 51.6 | active
SUV39H2 (GeneID 79723) | 2 | 51.2 | active
SUV39H2 (GeneID 79723) | 3 | 40.4 | active
BRCC3 (GeneID 79184) | 1 | 80.8 | inactive
BRCC3 (GeneID 79184) | 1 | 71.1 | active
BRCC3 (GeneID 79184) | 2 | 67.2 | active
BRCC3 (GeneID 79184) | 2 | 51 | active
BRCC3 (GeneID 79184) | 3 | 86.9 | inactive
BRCC3 (GeneID 79184) | 3 | 77.4 | active

A run of entries of the results above, as a working copy:
gene knocked down | technical replicate | viability, normalised (%) | call
MAD2L1 (GeneID 4085) | 1 | 87.3 | inactive
MAD2L1 (GeneID 4085) | 2 | 91.9 | inactive
MAD2L1 (GeneID 4085) | 3 | 86.6 | inactive
KDM4A (GeneID 9682) | 1 | 44.3 | active
KDM4A (GeneID 9682) | 2 | 58 | active
KDM4A (GeneID 9682) | 3 | 62.5 | active
CARMIL1 (GeneID 55604) | 1 | 63 | active
CARMIL1 (GeneID 55604) | 2 | 76.4 | active
